Literature values as cited in paper PMC3189208 (PLoS ONE, 2011).

Molecular target: MOR
Conditions: cited from earlier work

For `COc1cccc(C2(O)CCCCC2CN(C)C)c1` (stereo not shown) [tramadol], the Ki is listed as 2400 nM.
